# Results: PubChem BioAssay AID2685 (National Center for Advancing Translational Sciences (NCATS), 2010)
# Some of the results follow. The main result of the screen is listed elsewhere. These columns were measured beside it and carry no call. Most of these compounds were active or inconclusive in the main read-out, so they are no random draw. The note in brackets gives the kind of curve behind each potency; many fits are weak.
# Assay: qHTS Assay for Lipid Storage Modulators in Drosophila S3 Cells;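 on cell number change: cells counted by Cell Tracker Red CMTPX staining in the red channel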
# Conditions: BODIPY lipid droplet fluorescence, 18-24 h; for cell number change: measured here: cell count max response, cells fed with added oleic acid
# How it was run: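 Laser-scanning cytometry quantifies lipid droplet accumulation (500–530 nm total intensity; droplet/cell object ratio) in oleic acid-fed (400 uM added) Drosophila S3 cells treated with a concentration series. 20 uM Triacsin C defined 100% inhibition.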
# [1] = measured here: lipid fluorescence (Fed channel) AC50, cells fed with added oleic acid
# [2] = measured here: cell number channel AC50, cells fed with added oleic acid
compound,measurement,setting,value
CC1(C)Cc2ccccc2-c2nnc(-c3ccccc3)n21,cell number change,,11.7%
O=C(O)C1CCCN1C1=NS(=O)(=O)c2ccccc21 (stereo not drawn),cell number change,,2.56%
same,AC50,[1],"6510 nM [rising, single point]"
CCN1CCC(=NNC(=O)c2ccco2)CC1,cell number change,,9.86%
same,AC50,[1],"146 nM [rising, full curve, poor fit]"
CCCCNC(=O)C1c2ccccc2Oc2ccccc21,cell number change,,31.8%
same,AC50,[1],"16400 nM [rising, partial curve, poor fit]"
O=C(CSc1nc(-c2ccccc2F)nc2nc[nH]c12)Nc1c(Cl)cc(Cl)cc1Cl,cell number change,,7.32%
Cc1nnc(SCC(=O)Nc2cc(C(C)(C)C)nn2-c2ccccc2)s1,cell number change,,-37.2%
same,AC50,[2],"32600 nM [falling, single point]"
same,AC50,[1],"23100 nM [falling, partial curve]"
O=C(CNC(=O)c1ccccc1Cl)NC1CCN(Cc2ccccc2)CC1,cell number change,,-34.1%
same,AC50,[2],"1460 nM [falling, partial curve]"
same,AC50,[1],"651 nM [falling, single point]"
CC1=C(C)CC(C(=O)Nc2ccc(C(N)=O)cc2)C(C(=O)O)C1 (stereo not drawn),cell number change,,4.73%
same,AC50,[1],"32.6 nM [falling, full curve, poor fit]"
CCOc1ccc(N(CC(=O)NC2CCCC2)C(=O)CCCC(=O)Nc2ccccn2)cc1,cell number change,,3.6%
N#Cc1c(Cl)nsc1NN,cell number change,,-34.2%
same,AC50,[2],"517 nM [falling, full curve]"
same,AC50,[1],"29100 nM [rising, single point]"
Cc1ccc(-c2ccc(/C=N/N3C(=O)C4C5C=CC(CC5)C4C3=O)o2)c([N+](=O)[O-])c1 (stereo not drawn),cell number change,,27.8%
same,AC50,[2],"4610 nM [rising, full curve, poor fit]"
same,AC50,[1],"6510 nM [rising, single point]"
CC1(C)CC2CC(C)(CN2C(=O)CN2C(=O)c3ccccc3C2=O)C1 (stereo not drawn),cell number change,,6.33%
same,AC50,[1],"580 nM [rising, partial curve]"
NC(=O)C1(NC(=O)[C@@H]2CC3(CC(c4cccc(NC(=O)[C@@H]5CCC(=O)N5)c4)=NO3)CN2C(=O)Cc2ccc(C(F)(F)F)cc2)CC1 (stereo partly drawn),cell number change,,13.9%
same,AC50,[1],"146 nM [rising, full curve, poor fit]"
O=S(=O)(Nc1cccc(S(=O)(=O)N2CCOCC2)c1)c1ccc(Cl)s1,cell number change,,-8.2%
same,AC50,[1],"92 nM [falling, full curve, poor fit]"
CCN(CC)S(=O)(=O)c1ccc(C(=O)Nc2ncn(Cc3ccccc3)n2)cc1,cell number change,,-2.53%
same,AC50,[2],"231 nM [rising, single point]"
CCCc1cc(=O)[nH]c(SCC(=O)Nc2ccccc2C#N)n1,cell number change,,10.3%
same,AC50,[1],"103 nM [falling, full curve, poor fit]"
CCOc1cc(CNCCc2ccc(S(N)(=O)=O)cc2)ccc1OCc1ccc(Cl)cc1,cell number change,,-47%
same,AC50,[2],"32600 nM [falling, single point]"
same,AC50,[1],"32600 nM [falling, single point]"
Cc1cc(NC(=O)CS(=O)(=O)c2ccc(Cl)cc2)no1,AC50,[1],"116 nM [falling, full curve, poor fit]"
Cc1cccn2c(=O)c3cc(C(=O)NCCc4ccccc4)c(=N)n(CC4CCCO4)c3nc12 (stereo not drawn),cell number change,,2.42%
same,AC50,[1],"4610 nM [falling, partial curve, poor fit]"
O=C(Cn1c(N2CCN(C/C=C/c3ccccc3)CC2)nc2ccccc21)c1ccccc1,cell number change,,4.69%
same,AC50,[2],"731 nM [rising, single point]"
same,AC50,[1],"651 nM [rising, single point]"
CCOCCn1c(SCC)nc2c1c(=O)[nH]c(=O)n2C,AC50,[1],"25900 nM [falling, single point]"
Cc1cccc(CCN2C(N(C)C)=NC[C@@H]2CC(C)C)c1,cell number change,,-16.5%
same,AC50,[1],"29100 nM [rising, single point]"
O=C1CCCN1CCCNC(=S)Nc1ccc(F)cc1,cell number change,,-35%
same,AC50,[2],"32600 nM [falling, single point]"
COc1cc(CNC(C)(C)CO)cc(Br)c1OCc1ccccc1,cell number change,,7.69%
same,AC50,[2],"4.61 nM [falling, full curve, poor fit]"
same,AC50,[1],"6510 nM [falling, partial curve, poor fit]"
Fc1ccccc1-c1n[nH]c(=S)n1/N=C/c1c[nH]c2ccccc12,AC50,[1],"2590 nM [rising, full curve]"
O=C1CS/C(=N/N=C/c2ccccc2OS(=O)(=O)c2ccccc2)N1,cell number change,,4.49%
same,AC50,[1],"4110 nM [rising, full curve]"
CCc1nc(N=Nc2c(O)[nH]c3ccccc23)c2c3c(sc2n1)CCC3,cell number change,,-43.4%
same,AC50,[2],"1300 nM [falling, full curve]"
same,AC50,[1],"184 nM [rising, full curve, poor fit]"
Cc1ccc(N(Cc2cc(=O)[nH]c3ccccc23)C(=O)CCl)c(C)c1,cell number change,,-20.8%
same,AC50,[1],"29100 nM [rising, single point]"
COC(=O)c1ccc(-n2cnc3ccccc32)nc1,cell number change,,2.76%
O=c1[nH]c(=S)[nH]cc1Oc1ccc(Cl)cc1Cl,cell number change,,-9.35%
COc1ccc(-c2cc([C@H]3[C@H]4C=CC[C@@H](C)[C@@H]4C(=O)N3Cc3ccccc3)ccc2F)cc1,cell number change,,-0.655%
same,AC50,[1],"651 nM [rising, partial curve, poor fit]"
Cc1ccc(NC(=O)COc2coc(CN3CCN(Cc4ccccc4)CC3)cc2=O)cc1,cell number change,,-50%
same,AC50,[2],"16400 nM [falling, single point]"
CCOC(=O)C1(Cc2ccccc2C)CCCN(C(=O)c2cc(CC)nn2C)C1 (stereo not drawn),cell number change,,2.76%
same,AC50,[1],"920 nM [falling, full curve, poor fit]"
CC1CCCN(C(=O)c2ccc(OC3CCN(CCc4ccccc4)CC3)cc2)C1 (stereo not drawn),cell number change,,44.9%
same,AC50,[2],"20600 nM [rising, partial curve, poor fit]"
same,AC50,[1],"23100 nM [rising, single point]"
COc1ccc(C(C(=O)NC2CCCC2)N(C(=O)c2ccco2)c2cccc(C(C)=O)c2)cc1OC (stereo not drawn),cell number change,,7.69%
CCC(=O)C1CCCN(C(=O)c2ccc(OC)c(OC3CCN(C(C)=O)CC3)c2)C1 (stereo not drawn),cell number change,,9.41%
O=C(COC(=O)/C=C/c1cccc(Br)c1)NCCC1=CCCCC1,cell number change,,-24.8%
same,AC50,[2],"58 nM [falling, full curve, poor fit]"

# Some of the entries so far, bar-delimited:
compound | measurement | setting | value
CCN1CCC(=NNC(=O)c2ccco2)CC1 | cell number change |  | 9.86%
same | AC50 | [1] | 146 nM [rising, full curve, poor fit]
CCCCNC(=O)C1c2ccccc2Oc2ccccc21 | cell number change |  | 31.8%

# 2 entries from above, reformatted:
compound	measurement	setting	value
O=C(CNC(=O)c1ccccc1Cl)NC1CCN(Cc2ccccc2)CC1	AC50	[2]	1460 nM [falling, partial curve]
same	AC50	[1]	651 nM [falling, single point]
